These are yes or no findings as the source states them, for the method shown. Binding seen in cells or lysates may run through a third protein. Some results given as binding are weak or reduced against the parent protein; the word gives no strength. Values belong to the molecule of their own block, whether it stands above or below them.
Molecular target: Pax8 (rat (endogenous in PCCl3)) (UniProt P51974)
Assay: co-IP; nuclear extracts (200 ug) of control or hCTCF-transfected PCCl3 cells; polyclonal antibodies (anti-Pax8, anti-Sp1 or anti-CTCF) on Dynabeads; IP buffer 20 mM HEPES pH 8, 10 mM KCl, 0.15 mM EGTA, 0.15 mM EDTA, 150 mM NaCl, 0.1% NP-40; immunoblot for Sp1, CTCF or Pax8; nonspecific IgG as control

Amino acid sequences for entries named in this document (tags omitted).
UniProt P51974: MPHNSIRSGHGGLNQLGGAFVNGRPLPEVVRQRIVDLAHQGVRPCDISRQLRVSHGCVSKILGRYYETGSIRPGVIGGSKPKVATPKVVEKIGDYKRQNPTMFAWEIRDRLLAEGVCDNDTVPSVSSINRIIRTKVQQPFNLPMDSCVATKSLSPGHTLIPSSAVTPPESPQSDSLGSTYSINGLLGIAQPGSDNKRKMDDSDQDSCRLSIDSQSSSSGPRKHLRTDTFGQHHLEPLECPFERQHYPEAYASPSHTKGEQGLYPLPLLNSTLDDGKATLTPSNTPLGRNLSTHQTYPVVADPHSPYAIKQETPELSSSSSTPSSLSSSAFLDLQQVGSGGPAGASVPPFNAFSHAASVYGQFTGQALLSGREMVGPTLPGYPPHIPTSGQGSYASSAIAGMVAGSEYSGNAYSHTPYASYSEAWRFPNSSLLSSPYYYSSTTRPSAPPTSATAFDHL
UniProt Q01714: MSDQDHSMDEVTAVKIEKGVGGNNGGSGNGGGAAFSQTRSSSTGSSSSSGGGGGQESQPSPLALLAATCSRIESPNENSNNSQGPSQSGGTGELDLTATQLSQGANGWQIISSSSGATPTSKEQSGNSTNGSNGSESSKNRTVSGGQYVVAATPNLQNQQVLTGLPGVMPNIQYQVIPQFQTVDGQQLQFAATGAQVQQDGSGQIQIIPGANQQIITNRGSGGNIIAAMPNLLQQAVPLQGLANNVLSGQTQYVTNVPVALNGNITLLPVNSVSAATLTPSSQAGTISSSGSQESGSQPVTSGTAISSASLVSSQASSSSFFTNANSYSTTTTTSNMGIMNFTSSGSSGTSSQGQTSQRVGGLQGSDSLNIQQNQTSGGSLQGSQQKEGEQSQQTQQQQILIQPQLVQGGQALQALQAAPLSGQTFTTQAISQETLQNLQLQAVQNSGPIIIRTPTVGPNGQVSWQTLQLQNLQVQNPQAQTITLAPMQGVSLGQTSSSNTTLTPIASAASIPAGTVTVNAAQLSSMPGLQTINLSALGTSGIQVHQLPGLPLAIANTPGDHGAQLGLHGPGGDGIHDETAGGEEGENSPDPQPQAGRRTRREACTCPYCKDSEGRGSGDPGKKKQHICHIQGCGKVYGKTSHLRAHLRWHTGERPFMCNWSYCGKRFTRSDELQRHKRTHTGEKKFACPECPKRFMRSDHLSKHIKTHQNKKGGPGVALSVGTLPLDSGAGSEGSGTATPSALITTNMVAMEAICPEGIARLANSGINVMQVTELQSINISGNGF

binding: binds
Molecule: Sp1 (from UniProt Q01714 1-786)

binding: binds
B1: full-length human CTCF (protein, UniProt P49711 1-727)
chain: MEGDAVEAIVEESETFIKGKERKTYQRRREGGQEEDACHLPQNQTDGGEVVQDVNSSVQMVMMEQLDPTLLQMKTEVMEGTVAPEAEAAVDDTQIITLQVVNMEEQPINIGELQLVQVPVPVTVPVATTSVEELQGAYENEVSKEGLAESEPMICHTLPLPEGFQVVKVGANGEVETLEQGELPPQEDPSWQKDPDYQPPAKKTKKTKKSKLRYTEEGKDVDVSVYDFEEEQQEGLLSEVNAEKVVGNMKPPKPTKIKKKGVKKTFQCELCSYTCPRRSNLDRHMKSHTDERPHKCHLCGRAFRTVTLLRNHLNTHTGTRPHKCPDCDMAFVTSGELVRHRRYKHTHEKPFKCSMCDYASVEVSKLKRHIRSHTGERPFQCSLCSYASRDTYKLKRHMRTHSGEKPYECYICHARFTQSGTMKMHILQKHTENVAKFHCPHCDTVIARKSDLGVHLRKQHSYIEQGKKCRYCDAVFHERYALIQHQKSHKNEKRFKCDQCDYACRQERHMIMHKRTHTGEKPYACSHCDKTFRQKQLLDMHFKRYHDPNFVPAAFVCSKCGKTFTRRNTMARHADNCAGPDGVEGENGGETKKSKRGRKRKMRSKKEDSSDSENAEPDLDDNEDEEEPAVEIEPEPEPQPVTPAPPPAKKRRGRPPGRTNQPKQNQPTAIIQVEDQNTGAIENIIVEVKKEPDAEPAEGEEEEAQPAATDAPNGDLTPEMILSMMDR

Source: PMC3403905
